Some entries share one result that the patent states for a list of compounds.
Target: T1, AhR (Homo sapiens, UniProt P35869)
T1 sequence (P35869 11-848): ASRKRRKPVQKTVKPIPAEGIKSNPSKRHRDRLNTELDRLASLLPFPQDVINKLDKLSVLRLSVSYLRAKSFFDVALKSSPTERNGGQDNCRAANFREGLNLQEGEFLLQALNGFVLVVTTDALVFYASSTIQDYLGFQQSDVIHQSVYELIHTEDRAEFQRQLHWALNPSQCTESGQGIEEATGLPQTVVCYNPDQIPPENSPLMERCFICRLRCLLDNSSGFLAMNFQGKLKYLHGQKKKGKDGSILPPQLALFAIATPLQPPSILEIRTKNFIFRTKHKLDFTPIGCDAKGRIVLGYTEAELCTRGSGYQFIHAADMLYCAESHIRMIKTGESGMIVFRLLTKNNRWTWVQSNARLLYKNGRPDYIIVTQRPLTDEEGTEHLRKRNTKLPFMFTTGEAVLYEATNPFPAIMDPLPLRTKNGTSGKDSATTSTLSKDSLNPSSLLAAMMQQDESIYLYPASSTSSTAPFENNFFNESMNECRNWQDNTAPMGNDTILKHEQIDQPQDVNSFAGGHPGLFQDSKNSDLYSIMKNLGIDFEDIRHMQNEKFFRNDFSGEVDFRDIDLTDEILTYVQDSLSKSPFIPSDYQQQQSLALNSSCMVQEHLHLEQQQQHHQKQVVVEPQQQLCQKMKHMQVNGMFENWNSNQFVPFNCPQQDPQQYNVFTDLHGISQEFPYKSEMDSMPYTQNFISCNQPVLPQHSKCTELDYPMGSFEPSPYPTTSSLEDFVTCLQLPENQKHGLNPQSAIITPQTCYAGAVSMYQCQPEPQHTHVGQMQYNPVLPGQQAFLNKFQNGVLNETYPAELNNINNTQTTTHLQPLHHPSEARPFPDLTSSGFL
Test: AhR target gene expression by RT-PCR in A549, Calu-3, CaCo-2 and HepG32 cell lines
Assay type: cell-based
Parameters: endogenous in cells; host or cells: HepG2, A549, Calu-3, CaCo-2
Protocol: ITE and FICZ are reference AhR agonists. Assays were performed at 4 hours post-incubation.
To further characterize the AhR agonistic potential of 1ME3CA, the ability of 3-IAld and 1ME3CA to activate target genes downstream AhR (Cyp1a1, Cyp2a1 and AhRR) in the A549 cell line derived from adenocarcinomic human alveolar basal epithelial cells, in the Calu-3 cell line derived from adenocarcinomic human bronchial epithelial cells, in the CaCo-2 cell line derived from human colon carcinoma and in the […] human liver cancer cell line was comparatively assessed. Cells were exposed to 1, 10, 100 and 1000 µM of either molecules or DMSO for 4 hours or overnight (on) at 37° C. before being assessed for the expression of the above-mentioned genes by RT-PCR.

SMILES: Cn1cc(C(=O)O)c2ccccc21 [1-methylindole-3-carboxylic acid, 1-Methyl-1H-indole-3-carboxylic acid]
- optimal range of concentration: 10 to 100 µM
- time of exposure at which activity occurred (maintained thereafter): ≤ 4 h
